Measured values reported in PubChem BioAssay AID2283166 (EPA ToxCast).
This list was built around the results that the source calls inconclusive (neither active nor inactive); the mix of calls is not that of the screen. Potencies of inconclusive entries are doubtful fits and often do not repeat. The source made the active and inactive calls. The calls were made as follows: active = hit-call score of the fitted dose curve at least 0.9, where 1 is the maximum; inconclusive = response in the unintended direction; inactive = score below 0.9.

Chains of the proteins cited; added tags and fusions are not shown.
UniProt Q9NWZ3, whole entry, looked up: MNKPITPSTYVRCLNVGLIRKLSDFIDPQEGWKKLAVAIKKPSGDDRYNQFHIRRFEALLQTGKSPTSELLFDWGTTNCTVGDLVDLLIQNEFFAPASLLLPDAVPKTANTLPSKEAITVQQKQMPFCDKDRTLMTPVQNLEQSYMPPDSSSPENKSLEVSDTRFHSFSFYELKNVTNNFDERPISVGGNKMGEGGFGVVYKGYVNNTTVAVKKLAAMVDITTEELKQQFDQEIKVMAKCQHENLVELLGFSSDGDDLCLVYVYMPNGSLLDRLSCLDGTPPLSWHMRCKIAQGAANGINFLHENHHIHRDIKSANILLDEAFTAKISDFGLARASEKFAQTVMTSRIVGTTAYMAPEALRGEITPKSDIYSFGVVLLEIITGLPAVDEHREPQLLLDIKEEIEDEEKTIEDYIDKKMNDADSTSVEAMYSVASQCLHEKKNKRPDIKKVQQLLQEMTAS

target: human Interleukin-1 Receptor-Associated Kinase 4 (IRAK4), IRAK4 (gene 51135) (UniProt Q9NWZ3); assay: NVS_ENZ_hIRAK4: NovaScreen (NVS) Enzymatic Assay for human Interleukin-1 Receptor-Associated Kinase 4 (IRAK4)
Protocol: NVS_ENZ_hIRAK4 is a biochemical, single-readout assay that uses extracted gene-proteins in a cell-free assay. Measurements were taken 1 hour after chemical dosing in a 384-well plate.NVS_ENZ_hIRAK4 is one of one assay component(s) measured or calculated from the NVS_ENZ_hIRAK4 assay. It is designed to make measurements of enzyme activity, a form of enzyme reporter, as detected with fluorescence intensity signals by Fluorescence and electrophoretic mobility shift technology.Data from the assay component NVS_ENZ_hIRAK4 was analyzed into 1 assay endpoint. This assay endpoint, NVS_ENZ_hIRAK4, was analyzed in the positive analysis fitting direction relative to DMSO as the negative control and baseline of activity. Using a type of enzyme reporter, loss-of-signal activity can be used to understand changes in the enzymatic activity as they relate to the gene IRAK4. Furthermore, this assay endpoint can be referred to as a primary readout, because this assay has produced […] where this one serves a enzymatic activity function. To generalize the intended target to other relatable targets, this assay endpoint is annotated to the kinase intended target family, where the subfamily is […].
Binding assays used specific radioligands (tritiated, iodinated) with non-radioactive competitive displacement ligands in agonist or antagonist protocols (as indicated) and various reference compounds and inhibitors to titrate specific binding to receptors and transporters. Most enzyme assays (CYPs, kinases, phosphatases, proteases, HDACs) used recombinant protein and specific substrates (fluorescence mostly, some colorimetric and radioactive) and inhibitors, followed by a biochemical separation of substrate and product. All assays for the biochemical HTS were initially run in duplicate at a single concentration (10 uM for CYP450 assays and 25 uM for all others). […]

Structure (SMILES)	AC50	outcome
C#CC(C)(C)NC(=O)c1cc(Cl)cc(Cl)c1	inconclusive: 2.96 nM	
S=C1NCCN1	inconclusive: 2.29 nM	
COP(=S)(OC)Oc1ccc([N+](=O)[O-])cc1		inactive
